Structures were worked out from names or drawings and are uncertain.
What was measured:
FKBP51 = FKBP51 (Homo sapiens, UniProt Q13451); experiment: Fluorescence polarization (FP) assay, binding to the FK506-binding domain of FKBP51; conditions: read-out: FKBP51 Ki; FK506-binding domain of FKBP51 (FKBP51FK1), competition with fluorescent ligand 2b
Description: (§1) In the present invention, in vitro fluorescence polarization assays with the compounds of the general formula (I) were performed to determine the binding affinities to FKBP51 and FKBP52 or to the isolated FK506-binding domains of FKBP51 and FKBP52 ([…]). Binding to the isolated FK506-binding domains is reliably indicative of binding to the full length proteins. The affinities for the isolated FK506-binding domains and for full-length FKBP51 or FKBP52 are the same for all compounds tested so far (Kozany et al, ChemBioChem 2009, 10, 1402-1410).
(§2) Example 11: Fluorescence Polarization (FP) Assays
(§3) In-vitro fluorescence polarization assays were performed to determine the binding affinities for FKBP51 and 52 according to a literature procedure (Kozany, C.; Marz, A.; Kress, C.; Hausch, F., Fluorescent probes to characterise FK506-binding proteins. Chembiochem 2009, 10, (8), 1402-10).
(§4) For fluorescence polarization assays the fluorescent ligand 2b was dissolved in HEPES (20 mm, pH 8), Triton-X100 (0.01%), at double the concentration required for the final sample. […]
(§5) The samples were transferred to black 384-well assay plates (No.: 3575; Corning Life Sciences). After incubation at room temperature for 30 min the fluorescence anisotropy was measured (GENios Pro, Tecan, Männedorf, Switzerland) by using an excitation filters of 485/20 nm and emission filters of 535/25 nm. […]

By UniProt entry, the sequences of proteins in these tests, tags left out. Residues count along the entry.
UniProt Q13451, 42-130 limits assumed: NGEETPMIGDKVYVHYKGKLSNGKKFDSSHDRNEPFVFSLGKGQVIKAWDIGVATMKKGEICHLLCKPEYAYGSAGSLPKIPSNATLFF
UniProt Q02790, 50-138 limits assumed: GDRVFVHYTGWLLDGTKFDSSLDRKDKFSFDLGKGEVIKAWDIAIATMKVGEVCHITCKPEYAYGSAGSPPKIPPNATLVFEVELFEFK

FKBP52 = FKBP52 (Homo sapiens, UniProt Q02790); experiment: Fluorescence polarization (FP) assay, binding to the FK506-binding domain of FKBP52; conditions: read-out: FKBP52 Ki; FK506-binding domain of FKBP52 (FKBP52FK1), competition with fluorescent ligand 2b
Description: as §1, §2, §3, §4, §5

C#CCN1C[C@H](COC)[C@H]2CCC[C@@H](C1=O)N2S(=O)(=O)c1cccc(F)c1
Ki (FKBP51): 0.1 to 0.5 µM
Ki (FKBP52): 0.1 to 0.5 µM
